Test results as given in the supplement of paper PMC10849652.
This is one part of the list.

Sequences of proteins named here, by UniProt entry; tags and fusion partners are left off. A change or cut given only in a name is not applied to a line headed by its entry.
UniProt Q6IAA8, whole entry, looked up: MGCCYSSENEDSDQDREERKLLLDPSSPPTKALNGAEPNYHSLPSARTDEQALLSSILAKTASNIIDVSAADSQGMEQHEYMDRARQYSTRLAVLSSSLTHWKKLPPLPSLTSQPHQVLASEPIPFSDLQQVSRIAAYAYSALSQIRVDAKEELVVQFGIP
UniProt Q96EK9: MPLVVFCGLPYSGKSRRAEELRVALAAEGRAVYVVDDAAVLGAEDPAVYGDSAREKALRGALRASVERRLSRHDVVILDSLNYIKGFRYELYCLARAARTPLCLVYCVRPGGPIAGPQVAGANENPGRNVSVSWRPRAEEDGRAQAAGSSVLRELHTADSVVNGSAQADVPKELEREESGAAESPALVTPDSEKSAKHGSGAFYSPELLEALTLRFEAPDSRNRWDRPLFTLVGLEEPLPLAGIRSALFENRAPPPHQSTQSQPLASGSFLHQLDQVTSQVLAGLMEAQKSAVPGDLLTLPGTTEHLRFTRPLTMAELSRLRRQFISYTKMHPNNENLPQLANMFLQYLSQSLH
UniProt Q53H82: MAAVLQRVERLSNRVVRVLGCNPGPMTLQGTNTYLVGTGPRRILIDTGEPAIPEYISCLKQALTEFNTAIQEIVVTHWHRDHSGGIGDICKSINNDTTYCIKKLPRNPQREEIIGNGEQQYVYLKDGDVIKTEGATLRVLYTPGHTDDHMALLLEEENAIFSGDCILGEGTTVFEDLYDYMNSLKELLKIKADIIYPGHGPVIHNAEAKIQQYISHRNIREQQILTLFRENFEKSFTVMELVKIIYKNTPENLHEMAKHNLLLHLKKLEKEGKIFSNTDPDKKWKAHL
UniProt Q9NUP9: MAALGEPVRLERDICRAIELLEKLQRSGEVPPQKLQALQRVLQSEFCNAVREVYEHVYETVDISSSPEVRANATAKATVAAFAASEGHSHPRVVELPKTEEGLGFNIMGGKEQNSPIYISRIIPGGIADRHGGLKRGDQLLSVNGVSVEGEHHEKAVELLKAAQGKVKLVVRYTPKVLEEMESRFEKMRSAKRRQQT
UniProt P09382, whole entry, looked up: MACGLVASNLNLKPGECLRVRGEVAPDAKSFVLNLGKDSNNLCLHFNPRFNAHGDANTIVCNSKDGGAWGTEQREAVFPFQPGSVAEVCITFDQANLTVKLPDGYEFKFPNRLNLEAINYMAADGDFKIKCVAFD
UniProt Q9BRT6: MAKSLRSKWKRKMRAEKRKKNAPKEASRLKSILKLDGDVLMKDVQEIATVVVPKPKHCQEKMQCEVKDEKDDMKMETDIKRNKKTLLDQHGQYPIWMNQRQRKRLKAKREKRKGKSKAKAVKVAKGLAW
UniProt P36776: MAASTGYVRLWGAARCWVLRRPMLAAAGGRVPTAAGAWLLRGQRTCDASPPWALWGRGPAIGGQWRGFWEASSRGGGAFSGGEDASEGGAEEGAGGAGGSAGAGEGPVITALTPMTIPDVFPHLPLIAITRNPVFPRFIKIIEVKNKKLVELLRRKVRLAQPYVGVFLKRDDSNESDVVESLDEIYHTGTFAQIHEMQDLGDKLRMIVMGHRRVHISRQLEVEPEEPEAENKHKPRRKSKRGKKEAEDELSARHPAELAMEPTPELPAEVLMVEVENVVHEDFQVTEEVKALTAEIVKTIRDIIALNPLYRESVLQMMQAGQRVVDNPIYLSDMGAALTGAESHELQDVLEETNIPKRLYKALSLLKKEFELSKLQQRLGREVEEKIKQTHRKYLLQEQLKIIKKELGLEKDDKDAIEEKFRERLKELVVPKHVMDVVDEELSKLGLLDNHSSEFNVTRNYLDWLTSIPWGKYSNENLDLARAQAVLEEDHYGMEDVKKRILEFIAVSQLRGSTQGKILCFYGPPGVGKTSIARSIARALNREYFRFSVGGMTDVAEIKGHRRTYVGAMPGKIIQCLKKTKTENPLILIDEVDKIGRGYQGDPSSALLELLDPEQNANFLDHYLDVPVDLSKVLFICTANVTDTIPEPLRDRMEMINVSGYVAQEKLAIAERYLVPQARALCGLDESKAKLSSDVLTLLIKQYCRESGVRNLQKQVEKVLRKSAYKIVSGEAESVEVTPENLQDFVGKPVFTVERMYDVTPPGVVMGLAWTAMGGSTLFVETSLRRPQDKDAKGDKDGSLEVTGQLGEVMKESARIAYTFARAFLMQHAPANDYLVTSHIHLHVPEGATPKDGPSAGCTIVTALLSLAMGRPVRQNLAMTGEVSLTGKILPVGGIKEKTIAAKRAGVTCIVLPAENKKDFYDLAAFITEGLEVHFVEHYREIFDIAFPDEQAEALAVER
UniProt P50851: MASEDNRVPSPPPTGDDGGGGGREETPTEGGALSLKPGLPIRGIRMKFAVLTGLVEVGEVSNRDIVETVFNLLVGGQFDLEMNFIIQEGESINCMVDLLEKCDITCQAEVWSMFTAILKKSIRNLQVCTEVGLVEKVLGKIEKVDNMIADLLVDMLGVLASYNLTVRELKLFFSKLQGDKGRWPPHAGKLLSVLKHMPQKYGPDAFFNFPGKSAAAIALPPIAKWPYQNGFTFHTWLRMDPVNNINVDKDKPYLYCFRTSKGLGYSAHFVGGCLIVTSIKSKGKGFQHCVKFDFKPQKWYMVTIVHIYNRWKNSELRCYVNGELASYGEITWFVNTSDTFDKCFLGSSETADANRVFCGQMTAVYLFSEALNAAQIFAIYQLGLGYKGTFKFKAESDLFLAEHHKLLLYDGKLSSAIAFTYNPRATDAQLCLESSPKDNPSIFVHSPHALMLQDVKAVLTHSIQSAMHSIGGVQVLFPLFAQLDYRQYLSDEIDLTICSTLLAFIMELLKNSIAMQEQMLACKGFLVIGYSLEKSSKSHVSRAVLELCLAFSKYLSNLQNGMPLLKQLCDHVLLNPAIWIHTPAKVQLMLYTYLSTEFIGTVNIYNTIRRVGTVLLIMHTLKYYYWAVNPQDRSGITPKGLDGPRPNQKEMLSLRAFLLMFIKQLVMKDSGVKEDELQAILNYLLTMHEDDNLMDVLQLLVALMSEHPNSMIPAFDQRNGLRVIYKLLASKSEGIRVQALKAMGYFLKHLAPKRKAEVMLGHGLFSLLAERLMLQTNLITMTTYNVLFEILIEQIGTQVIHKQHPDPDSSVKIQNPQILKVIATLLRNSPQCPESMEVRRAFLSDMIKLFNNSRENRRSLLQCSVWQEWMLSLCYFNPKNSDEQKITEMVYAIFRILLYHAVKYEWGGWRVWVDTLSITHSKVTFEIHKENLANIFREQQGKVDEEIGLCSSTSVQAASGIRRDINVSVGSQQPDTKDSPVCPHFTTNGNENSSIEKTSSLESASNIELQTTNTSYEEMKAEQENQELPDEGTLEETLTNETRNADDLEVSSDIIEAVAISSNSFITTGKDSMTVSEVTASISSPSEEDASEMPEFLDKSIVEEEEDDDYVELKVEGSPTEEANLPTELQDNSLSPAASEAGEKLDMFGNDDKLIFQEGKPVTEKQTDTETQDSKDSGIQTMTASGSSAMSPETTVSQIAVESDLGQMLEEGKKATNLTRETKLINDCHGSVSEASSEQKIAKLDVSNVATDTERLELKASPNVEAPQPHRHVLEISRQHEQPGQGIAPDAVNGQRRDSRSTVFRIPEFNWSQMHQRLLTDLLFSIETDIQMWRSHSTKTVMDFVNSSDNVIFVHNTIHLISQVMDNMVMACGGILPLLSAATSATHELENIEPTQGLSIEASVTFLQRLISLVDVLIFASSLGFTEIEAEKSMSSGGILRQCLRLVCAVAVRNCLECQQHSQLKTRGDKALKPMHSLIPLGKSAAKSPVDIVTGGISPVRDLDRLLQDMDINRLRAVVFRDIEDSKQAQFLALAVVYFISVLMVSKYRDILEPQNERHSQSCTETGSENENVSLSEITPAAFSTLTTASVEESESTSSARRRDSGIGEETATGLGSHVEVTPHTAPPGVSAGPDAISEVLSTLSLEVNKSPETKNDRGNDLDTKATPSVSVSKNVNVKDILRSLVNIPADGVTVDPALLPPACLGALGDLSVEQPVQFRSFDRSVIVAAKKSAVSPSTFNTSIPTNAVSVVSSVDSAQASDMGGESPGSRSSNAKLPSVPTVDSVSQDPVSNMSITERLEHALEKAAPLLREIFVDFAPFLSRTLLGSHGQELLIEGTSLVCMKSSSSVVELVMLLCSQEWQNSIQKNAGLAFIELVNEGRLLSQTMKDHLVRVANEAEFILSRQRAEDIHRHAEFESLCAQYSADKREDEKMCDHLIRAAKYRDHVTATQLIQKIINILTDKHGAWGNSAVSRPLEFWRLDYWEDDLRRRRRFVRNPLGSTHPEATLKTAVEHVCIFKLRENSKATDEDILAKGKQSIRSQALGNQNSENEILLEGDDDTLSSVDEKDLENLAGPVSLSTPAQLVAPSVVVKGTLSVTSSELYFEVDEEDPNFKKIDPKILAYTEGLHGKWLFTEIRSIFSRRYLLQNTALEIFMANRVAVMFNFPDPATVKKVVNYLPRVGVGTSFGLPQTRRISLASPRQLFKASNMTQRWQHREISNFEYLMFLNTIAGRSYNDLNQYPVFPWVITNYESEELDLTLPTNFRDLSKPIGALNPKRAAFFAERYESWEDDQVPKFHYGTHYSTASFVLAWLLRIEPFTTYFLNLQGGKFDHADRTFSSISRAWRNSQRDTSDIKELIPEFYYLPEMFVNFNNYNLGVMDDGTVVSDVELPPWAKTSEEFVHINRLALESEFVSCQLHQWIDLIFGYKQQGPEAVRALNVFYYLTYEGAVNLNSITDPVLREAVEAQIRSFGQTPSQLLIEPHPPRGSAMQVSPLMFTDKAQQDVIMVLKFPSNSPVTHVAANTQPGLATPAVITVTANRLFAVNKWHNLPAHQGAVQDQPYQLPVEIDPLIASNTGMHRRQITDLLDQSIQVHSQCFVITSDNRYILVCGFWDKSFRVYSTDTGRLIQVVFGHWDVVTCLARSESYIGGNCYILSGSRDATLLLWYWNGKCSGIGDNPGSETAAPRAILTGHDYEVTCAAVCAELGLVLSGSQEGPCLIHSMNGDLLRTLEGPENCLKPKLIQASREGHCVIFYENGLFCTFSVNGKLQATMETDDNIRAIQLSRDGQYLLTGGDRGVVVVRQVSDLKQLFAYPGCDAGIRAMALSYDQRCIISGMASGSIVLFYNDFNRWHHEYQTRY
UniProt P30533, whole entry, looked up: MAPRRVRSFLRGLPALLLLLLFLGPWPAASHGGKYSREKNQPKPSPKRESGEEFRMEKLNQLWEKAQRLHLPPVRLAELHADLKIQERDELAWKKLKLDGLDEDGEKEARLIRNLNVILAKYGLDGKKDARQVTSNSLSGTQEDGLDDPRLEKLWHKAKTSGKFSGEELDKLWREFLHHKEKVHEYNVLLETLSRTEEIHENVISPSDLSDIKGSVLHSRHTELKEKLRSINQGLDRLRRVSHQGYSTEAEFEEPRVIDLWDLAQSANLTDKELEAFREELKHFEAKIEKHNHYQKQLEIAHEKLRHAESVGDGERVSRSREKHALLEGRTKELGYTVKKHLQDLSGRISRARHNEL
UniProt Q6P1A2: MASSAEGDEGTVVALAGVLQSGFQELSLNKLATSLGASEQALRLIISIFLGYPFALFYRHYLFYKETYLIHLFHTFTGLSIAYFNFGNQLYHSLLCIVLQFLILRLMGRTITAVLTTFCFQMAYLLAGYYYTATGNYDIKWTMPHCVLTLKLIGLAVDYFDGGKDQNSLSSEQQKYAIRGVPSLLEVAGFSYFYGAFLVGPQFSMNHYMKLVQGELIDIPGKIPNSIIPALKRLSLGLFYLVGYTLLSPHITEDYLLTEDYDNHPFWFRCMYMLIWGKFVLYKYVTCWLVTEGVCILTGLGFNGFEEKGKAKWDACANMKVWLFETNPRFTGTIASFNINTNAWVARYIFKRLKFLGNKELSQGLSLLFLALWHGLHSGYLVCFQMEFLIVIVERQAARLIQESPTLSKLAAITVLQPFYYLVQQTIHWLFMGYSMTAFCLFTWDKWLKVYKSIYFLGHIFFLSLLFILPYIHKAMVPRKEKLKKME
UniProt Q14739: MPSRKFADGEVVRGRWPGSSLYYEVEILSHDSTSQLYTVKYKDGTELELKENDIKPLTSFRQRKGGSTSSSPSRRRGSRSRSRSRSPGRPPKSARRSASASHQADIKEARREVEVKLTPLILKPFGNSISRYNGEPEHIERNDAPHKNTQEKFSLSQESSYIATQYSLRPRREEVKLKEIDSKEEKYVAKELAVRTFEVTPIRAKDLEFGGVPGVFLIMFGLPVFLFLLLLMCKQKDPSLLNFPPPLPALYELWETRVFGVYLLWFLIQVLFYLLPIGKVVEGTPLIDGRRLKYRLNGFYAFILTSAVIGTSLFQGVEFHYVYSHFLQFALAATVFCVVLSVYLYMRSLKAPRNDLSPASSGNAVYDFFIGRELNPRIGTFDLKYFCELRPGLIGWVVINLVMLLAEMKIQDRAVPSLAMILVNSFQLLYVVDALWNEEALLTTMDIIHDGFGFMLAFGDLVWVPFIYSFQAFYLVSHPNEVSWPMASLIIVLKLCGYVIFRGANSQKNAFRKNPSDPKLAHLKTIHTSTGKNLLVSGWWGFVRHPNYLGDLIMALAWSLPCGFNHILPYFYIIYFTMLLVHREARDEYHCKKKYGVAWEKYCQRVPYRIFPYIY

Legend:
Assay in all cases: log2 fold change, soluble protein after heating vs DMSO (PISA); higher = thermal stabilisation; K562 cells, 10 uM, 30 min; active = over 0.2 and 3.5 SD of the protein, either way, in both replicates (recomputed)
[1] = compound: CC1=C(C=C(C=C1)NC(=O)C2=CC(=CC=C2)C(C)(C)C#N)NC3=CC4=C(C=C3)N=CN(C4=O)C
In short: (§1)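 K562 cells (2×10^6 cells/mL) were treated with 10 μM compound for 30 min, and aliquots were heated for 3 min over 48°C-58°C. Pooled aliquots were extracted in PBS with 0.5% NP-40 at 4°C, and the supernatant after 21,000xg for 90 min was measured by TMTpro 16plex LC-MS/MS with channel sums equalised. Reported thermal stability, relative to control samples and from duplicates, is a log2 fold change.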

[2] = compound: CC1=C(C=C(C=C1)NC(=O)C2=CC(=CC=C2)N(C)C)NC(=O)C3=CC=C(C=C3)O
In short: as §1

[3] = compound: CC1=CC=C(C=C1)SC2=C3C=C(SC3=CN=C2)C(=O)N
In short: as §1

[4] = compound: CC1=NC(=CC=C1)C2=C(N=C(N2)C(C)(C)C)C3=CC4=NC=CN=C4C=C3
In short: as §1

Nexturastat A = compound: CCCCN(Cc1ccc(C(=O)NO)cc1)C(=O)Nc1ccccc1 [Nexturastat A]
In short: as §1

vemurafenib = compound: CCCS(=O)(=O)Nc1ccc(F)c(C(=O)c2c[nH]c3ncc(-c4ccc(Cl)cc4)cc23)c1F [vemurafenib]
In short: as §1

[5] = compound: CCCS(=O)(=O)Nc1ccc(F)c(C(=O)c2c[nH]c3ncc(Cl)cc23)c1F
In short: as §1

[6] = compound: CCCc1cc(C)[nH]c(=O)c1CNC(=O)c1cc(-c2ccnc(N3CCN(C)CC3)c2)cc2c1cnn2C(C)C
In short: as §1

givinostat = compound: CCN(CC)Cc1ccc2cc(COC(=O)Nc3ccc(C(=O)NO)cc3)ccc2c1 [givinostat]
In short: as §1

barasertib = compound: CCN(CCCOc1ccc2c(Nc3cc(CC(=O)Nc4cccc(F)c4)[nH]n3)ncnc2c1)CCOP(=O)(O)O [barasertib]
In short: as §1

Measured: log2 fold change

LAMTOR1 (UniProt Q6IAA8)
inactive: [1] 0.093 | [2] 0.019 | [3] 0.058 | [4] 0.069 | Nexturastat A 0.173 | vemurafenib 0 | [5] 0.037 | [6] 0.056 | givinostat -0.013 | barasertib -0.019

LIAS (UniProt O43766)
inactive: [1] -0.044 | [2] 0.119 | [3] -0.128 | [4] -0.002 | Nexturastat A -0.057 | vemurafenib -0.013 | [5] -0.13 | [6] -0.01 | givinostat -0.06 | barasertib -0.001

KTI12 (UniProt Q96EK9)
inactive: [1] 0.033 | [2] -0.019 | [3] 0.012 | [4] 0.063 | Nexturastat A 0.098 | vemurafenib 0.128 | [5] 0.025 | [6] 0.019 | givinostat 0.145 | barasertib 0.033

LRG1 (UniProt P02750)
inactive: [1] 0.103 | [2] -0.163 | [3] 0.054 | [4] -0.09 | Nexturastat A -0.184 | vemurafenib -0.081 | [5] -0.061 | [6] 0.137 | givinostat -0.422

LACTB2 (UniProt Q53H82)
inactive: [1] 0.024 | [2] -0.009 | [3] 0.028 | [4] 0.039 | Nexturastat A -0.019 | vemurafenib -0.046 | [5] -0.056 | [6] -0.026 | givinostat -0.118 | barasertib 0.007

LIN7C (UniProt Q9NUP9)
inactive: [1] -0.043 | [2] 0.003 | [3] -0.019 | [4] -0.008 | Nexturastat A 0.036 | vemurafenib -0.002 | [5] -0.021 | [6] 0.01 | givinostat -0.015 | barasertib 0.007

LIMA1 isoform 4 (UniProt Q9UHB6)
inactive: [1] -0.082 | [2] 0.133 | [3] -0.014 | [4] 0.033 | Nexturastat A 0.004 | vemurafenib 0.061 | [5] 0.011 | [6] -0.033 | givinostat 0.032 | barasertib -0.025

LANCL1 (UniProt O43813)
inactive: [1] -0.025 | [2] 0.015 | [3] 0 | [4] 0.017 | Nexturastat A -0.03 | vemurafenib 0.02 | [5] -0.06 | [6] -0.04 | givinostat -0.033 | barasertib -0.019

LGALS1 (UniProt P09382)
inactive: [1] 0.046 | [2] -0.059 | [3] 0.024 | [4] -0.016 | Nexturastat A 0.061 | vemurafenib 0.012 | [5] -0.005 | [6] -0.013 | givinostat -0.035 | barasertib -0.001

LARP1 (UniProt Q6PKG0)
inactive: [1] 0.01 | [2] 0.032 | [3] -0.035 | [4] 0.029 | Nexturastat A 0.142 | vemurafenib -0.033 | [5] -0.03 | [6] 0.046 | givinostat 0.012 | barasertib -0.006

LAPTM4A (UniProt Q15012)
inactive: [1] 0.008

LPIN2 (UniProt Q92539)
inactive: [1] -0.076 | [2] 0.027 | [3] 0.048 | [4] 0.031 | Nexturastat A 0.083 | vemurafenib -0.08 | [5] -0.067 | [6] 0.043 | givinostat -0.082 | barasertib 0.04

LANCL2 (UniProt Q9NS86)
inactive: [1] -0.018 | [2] 0.011 | [3] -0.001 | [4] 0.002 | Nexturastat A -0.002 | vemurafenib -0.009 | [5] -0.062 | [6] -0.033 | givinostat -0.065 | barasertib -0.004

LPCAT1 (UniProt Q8NF37)
inactive: [1] -0.012 | [2] -0.016 | [3] 0.01 | [4] 0.048 | Nexturastat A -0.024 | vemurafenib -0.067 | [5] 0.016 | [6] -0.017 | givinostat 0.019 | barasertib 0.019

LRPPRC (UniProt P42704)
inactive: [1] 0.264 | [2] -0.054 | [3] 0.222 | [4] 0.336 | Nexturastat A 0.282 | vemurafenib 0.227 | [5] 0.264 | [6] -0.005 | givinostat 0.417 | barasertib 0.369

LPIN1 isoform 7 (UniProt Q14693)
inactive: [1] -0.022 | [2] 0.018 | [3] -0.022 | [4] -0.026 | Nexturastat A -0.023 | vemurafenib -0.004 | [5] 0.015 | [6] 0.029 | givinostat 0.012 | barasertib 0.023

LLPH (UniProt Q9BRT6)
inactive: [1] 0.047 | [2] -0.006 | [3] -0.103 | [4] -0.269 | Nexturastat A 0.182 | vemurafenib -0.186 | [5] 0.054 | [6] 0.212 | givinostat 0.058 | barasertib -0.217

LAMTOR3 (UniProt Q9UHA4)
inactive: [1] 0.061 | [2] -0.021 | [3] 0.03 | [4] -0.033 | Nexturastat A 0.087 | vemurafenib -0.035 | [5] 0.009 | [6] 0.069 | givinostat 0.01 | barasertib -0.008

LONP1 (UniProt P36776)
inactive: [1] 0.011 | [2] 0.038 | [3] 0.012 | [4] 0.028 | Nexturastat A -0.055 | vemurafenib -0.011 | [5] -0.009 | [6] -0.01 | givinostat -0.007 | barasertib -0.021

LEMD2 (UniProt Q8NC56)
inactive: [1] -0.068 | [2] -0.02 | [3] 0.038 | [4] 0.051 | Nexturastat A -0.002 | vemurafenib -0.001 | [5] 0.045 | [6] 0.002 | givinostat -0.022 | barasertib 0.017

LNPEP (UniProt Q9UIQ6)
inactive: [1] 0.018 | [2] 0.03 | [3] 0.01 | [4] -0.009 | Nexturastat A -0.051 | vemurafenib -0.013 | [5] 0.015 | [6] 0.008 | givinostat 0.014 | barasertib -0.009

LDAH isoform 2 (UniProt Q9H6V9)
inactive: [1] -0.026 | [2] -0.008 | [3] 0 | [4] -0.024 | Nexturastat A 0.032 | vemurafenib 0.044 | [5] 0.024 | [6] -0.04 | givinostat 0.059 | barasertib 0.031

LEO1 (UniProt Q8WVC0)
inactive: [1] -0.086 | [2] -0.113 | [3] 0 | [4] -0.075 | Nexturastat A 0.109 | vemurafenib -0.025 | [5] 0.033 | [6] 0.029 | givinostat 0.118 | barasertib 0.032

2 entries picked at random from the list so far:
LONP1 (UniProt P36776)
inactive: [1] 0.011 | [2] 0.038 | [3] 0.012 | [4] 0.028 | Nexturastat A -0.055 | vemurafenib -0.011 | [5] -0.009 | [6] -0.01 | givinostat -0.007 | barasertib -0.021

LNPEP (UniProt Q9UIQ6)
inactive: [1] 0.018 | [2] 0.03 | [3] 0.01 | [4] -0.009 | Nexturastat A -0.051 | vemurafenib -0.013 | [5] 0.015 | [6] 0.008 | givinostat 0.014 | barasertib -0.009

More records.

LRIG2 (UniProt O94898)
inactive: [1] -0.026 | [2] -0.022 | [3] -0.042 | [4] -0.03 | Nexturastat A -0.05 | vemurafenib 0.137 | [5] -0.054 | [6] -0.037 | givinostat 0.013 | barasertib 0.04

LMAN2L isoform 2 (UniProt Q9H0V9)
inactive: [1] -0.047 | [2] 0.008 | [3] 0.094 | [4] -0.004 | Nexturastat A 0.035 | vemurafenib -0.01 | [5] -0.044 | [6] -0.057 | givinostat 0.042 | barasertib 0.025

LEMD3 (UniProt Q9Y2U8)
inactive: [1] -0.066 | [2] -0.071 | [3] -0.005 | [4] -0.017 | Nexturastat A 0.026 | vemurafenib 0.056 | [5] 0.005 | [6] 0.054 | givinostat 0.077 | barasertib 0.023

LRBA (UniProt P50851)
inactive: [1] -0.011 | [2] 0 | [3] -0.011 | [4] 0.001 | Nexturastat A -0.046 | vemurafenib 0.01 | [5] 0.031 | [6] -0.025 | givinostat 0.008 | barasertib 0.038

LRPAP1 (UniProt P30533)
inactive: [1] -0.029 | [2] -0.058 | [3] -0.028 | [4] -0.021 | Nexturastat A -0.076 | vemurafenib -0.028 | [5] -0.023 | [6] -0.018 | givinostat -0.15 | barasertib 0.015

LPCAT3 (UniProt Q6P1A2)
active: [1] 0.289
inactive: [2] -0.029 | [3] 0.052 | [4] 0.033 | Nexturastat A -0.226 | vemurafenib -0.019 | [5] 0.036 | [6] 0.089 | givinostat 0.031 | barasertib -0.005

LBR (UniProt Q14739)
inactive: [1] 0.045 | [2] -0.035 | [3] -0.002 | [4] 0.045 | Nexturastat A -0.108 | vemurafenib 0.063 | [5] 0.05 | [6] -0.009 | givinostat 0.125 | barasertib 0.024
